The list shows a part of the results.
Compound: Cc1cc(ccc1-c1ccccc1)C(=O)N1CCCN(CC1)C(=O)CCl [compound 10]
Assay: probe-labelled cysteine peptide fold change vs DMSO (competition) (log2 fold change); higher = less target engagement (more negative = stronger competition)
Details: THP-1, incubation time: 4 h
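Further: competitive profiling in live THP-1 cells: cysteine peptides tagged with an iodoacetamide desthiobiotin (IA-DTB) probe, intensity after compound treatment relative to DMSO-treated cells.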

Protein sequences, listed by entry. Tags and fused reporters are not part of them. Lines headed by an entry give the natural chain unless they say otherwise; changes in a name come on top.
UniProt Q92766: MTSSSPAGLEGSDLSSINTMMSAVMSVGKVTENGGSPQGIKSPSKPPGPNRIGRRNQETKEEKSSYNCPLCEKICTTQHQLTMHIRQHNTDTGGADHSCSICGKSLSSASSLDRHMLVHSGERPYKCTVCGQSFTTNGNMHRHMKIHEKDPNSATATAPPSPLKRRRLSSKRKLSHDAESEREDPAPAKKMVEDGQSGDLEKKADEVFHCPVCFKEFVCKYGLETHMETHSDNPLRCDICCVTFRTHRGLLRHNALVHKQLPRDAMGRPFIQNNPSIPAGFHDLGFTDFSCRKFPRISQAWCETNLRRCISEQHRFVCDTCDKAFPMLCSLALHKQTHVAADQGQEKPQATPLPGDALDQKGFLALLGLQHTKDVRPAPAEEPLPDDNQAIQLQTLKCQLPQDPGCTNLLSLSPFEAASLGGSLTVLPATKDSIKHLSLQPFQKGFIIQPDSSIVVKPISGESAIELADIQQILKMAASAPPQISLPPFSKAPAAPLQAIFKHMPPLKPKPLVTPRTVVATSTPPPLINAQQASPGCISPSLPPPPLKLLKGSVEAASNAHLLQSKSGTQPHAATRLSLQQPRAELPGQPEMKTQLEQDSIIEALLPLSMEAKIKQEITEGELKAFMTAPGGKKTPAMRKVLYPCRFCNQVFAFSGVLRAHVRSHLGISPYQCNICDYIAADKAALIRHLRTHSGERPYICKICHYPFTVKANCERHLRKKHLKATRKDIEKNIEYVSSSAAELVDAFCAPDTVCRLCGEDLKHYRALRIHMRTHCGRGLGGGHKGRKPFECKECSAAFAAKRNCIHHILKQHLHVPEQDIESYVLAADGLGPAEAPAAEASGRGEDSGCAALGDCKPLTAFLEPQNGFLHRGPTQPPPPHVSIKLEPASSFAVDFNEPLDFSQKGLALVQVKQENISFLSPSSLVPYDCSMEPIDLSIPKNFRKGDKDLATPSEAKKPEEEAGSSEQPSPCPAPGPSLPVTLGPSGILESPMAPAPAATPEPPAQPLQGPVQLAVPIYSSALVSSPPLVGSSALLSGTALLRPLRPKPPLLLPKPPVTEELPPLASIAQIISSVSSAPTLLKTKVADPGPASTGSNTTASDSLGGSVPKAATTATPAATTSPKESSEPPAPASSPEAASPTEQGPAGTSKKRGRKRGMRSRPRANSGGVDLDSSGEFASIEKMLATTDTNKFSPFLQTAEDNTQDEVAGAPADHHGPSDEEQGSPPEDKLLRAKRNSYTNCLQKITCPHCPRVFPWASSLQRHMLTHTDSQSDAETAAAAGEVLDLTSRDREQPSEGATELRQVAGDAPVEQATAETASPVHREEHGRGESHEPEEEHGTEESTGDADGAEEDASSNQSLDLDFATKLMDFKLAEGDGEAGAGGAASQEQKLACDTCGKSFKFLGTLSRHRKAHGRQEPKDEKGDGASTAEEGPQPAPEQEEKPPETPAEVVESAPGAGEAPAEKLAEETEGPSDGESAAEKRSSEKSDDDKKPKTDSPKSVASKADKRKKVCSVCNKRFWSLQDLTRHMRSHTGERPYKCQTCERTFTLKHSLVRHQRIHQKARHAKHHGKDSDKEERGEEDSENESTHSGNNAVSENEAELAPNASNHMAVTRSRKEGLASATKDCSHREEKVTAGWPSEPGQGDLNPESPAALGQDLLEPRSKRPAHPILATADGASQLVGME
UniProt Q9UBE0: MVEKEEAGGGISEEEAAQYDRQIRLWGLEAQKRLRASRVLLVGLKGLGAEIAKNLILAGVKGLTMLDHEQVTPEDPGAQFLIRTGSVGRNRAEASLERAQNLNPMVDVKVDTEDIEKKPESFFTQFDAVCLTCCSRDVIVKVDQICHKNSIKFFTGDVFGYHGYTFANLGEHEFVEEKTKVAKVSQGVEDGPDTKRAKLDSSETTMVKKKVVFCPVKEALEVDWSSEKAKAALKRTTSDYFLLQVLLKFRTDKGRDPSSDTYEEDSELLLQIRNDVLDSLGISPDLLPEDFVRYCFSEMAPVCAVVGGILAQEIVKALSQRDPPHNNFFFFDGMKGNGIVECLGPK
UniProt Q9Y230, whole entry, looked up: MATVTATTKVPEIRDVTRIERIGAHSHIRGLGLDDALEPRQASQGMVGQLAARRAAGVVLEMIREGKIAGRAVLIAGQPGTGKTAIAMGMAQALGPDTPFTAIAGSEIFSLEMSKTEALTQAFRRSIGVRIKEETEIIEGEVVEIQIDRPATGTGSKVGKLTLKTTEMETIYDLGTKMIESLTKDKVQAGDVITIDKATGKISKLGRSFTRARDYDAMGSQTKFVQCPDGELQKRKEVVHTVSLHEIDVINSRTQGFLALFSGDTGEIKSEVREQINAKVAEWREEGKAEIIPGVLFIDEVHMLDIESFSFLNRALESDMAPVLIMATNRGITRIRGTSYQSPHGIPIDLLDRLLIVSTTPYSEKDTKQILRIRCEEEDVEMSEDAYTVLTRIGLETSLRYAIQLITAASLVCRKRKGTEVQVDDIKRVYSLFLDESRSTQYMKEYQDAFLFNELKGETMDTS
UniProt Q9BY42: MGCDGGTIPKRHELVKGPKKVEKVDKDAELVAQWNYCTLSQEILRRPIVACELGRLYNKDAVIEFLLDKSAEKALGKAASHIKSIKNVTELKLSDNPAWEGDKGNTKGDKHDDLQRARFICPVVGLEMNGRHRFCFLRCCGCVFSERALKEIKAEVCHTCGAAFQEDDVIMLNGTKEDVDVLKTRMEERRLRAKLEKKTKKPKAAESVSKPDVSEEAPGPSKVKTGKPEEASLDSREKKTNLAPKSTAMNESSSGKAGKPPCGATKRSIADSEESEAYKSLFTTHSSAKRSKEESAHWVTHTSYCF
UniProt Q6PCB5: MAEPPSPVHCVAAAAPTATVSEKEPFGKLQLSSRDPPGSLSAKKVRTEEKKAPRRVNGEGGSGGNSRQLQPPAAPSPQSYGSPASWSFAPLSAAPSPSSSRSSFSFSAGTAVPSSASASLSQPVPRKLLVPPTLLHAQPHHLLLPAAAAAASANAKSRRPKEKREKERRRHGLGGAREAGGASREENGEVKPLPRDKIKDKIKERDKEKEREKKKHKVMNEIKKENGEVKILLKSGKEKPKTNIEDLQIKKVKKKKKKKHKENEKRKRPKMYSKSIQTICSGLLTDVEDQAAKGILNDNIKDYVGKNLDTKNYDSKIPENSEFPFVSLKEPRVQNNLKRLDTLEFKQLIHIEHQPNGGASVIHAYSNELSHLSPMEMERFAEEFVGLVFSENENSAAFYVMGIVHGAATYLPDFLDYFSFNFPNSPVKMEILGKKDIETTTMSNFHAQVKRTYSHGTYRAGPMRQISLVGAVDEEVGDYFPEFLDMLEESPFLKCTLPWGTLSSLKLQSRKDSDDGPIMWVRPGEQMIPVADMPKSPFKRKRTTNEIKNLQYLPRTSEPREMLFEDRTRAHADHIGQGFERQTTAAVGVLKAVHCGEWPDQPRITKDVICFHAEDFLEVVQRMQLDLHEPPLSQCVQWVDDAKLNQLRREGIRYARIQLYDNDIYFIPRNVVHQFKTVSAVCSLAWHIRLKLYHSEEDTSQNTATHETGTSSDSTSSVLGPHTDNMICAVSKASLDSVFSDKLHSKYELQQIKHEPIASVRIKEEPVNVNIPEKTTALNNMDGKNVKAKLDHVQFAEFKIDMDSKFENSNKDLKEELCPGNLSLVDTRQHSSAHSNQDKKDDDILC
UniProt Q96T51: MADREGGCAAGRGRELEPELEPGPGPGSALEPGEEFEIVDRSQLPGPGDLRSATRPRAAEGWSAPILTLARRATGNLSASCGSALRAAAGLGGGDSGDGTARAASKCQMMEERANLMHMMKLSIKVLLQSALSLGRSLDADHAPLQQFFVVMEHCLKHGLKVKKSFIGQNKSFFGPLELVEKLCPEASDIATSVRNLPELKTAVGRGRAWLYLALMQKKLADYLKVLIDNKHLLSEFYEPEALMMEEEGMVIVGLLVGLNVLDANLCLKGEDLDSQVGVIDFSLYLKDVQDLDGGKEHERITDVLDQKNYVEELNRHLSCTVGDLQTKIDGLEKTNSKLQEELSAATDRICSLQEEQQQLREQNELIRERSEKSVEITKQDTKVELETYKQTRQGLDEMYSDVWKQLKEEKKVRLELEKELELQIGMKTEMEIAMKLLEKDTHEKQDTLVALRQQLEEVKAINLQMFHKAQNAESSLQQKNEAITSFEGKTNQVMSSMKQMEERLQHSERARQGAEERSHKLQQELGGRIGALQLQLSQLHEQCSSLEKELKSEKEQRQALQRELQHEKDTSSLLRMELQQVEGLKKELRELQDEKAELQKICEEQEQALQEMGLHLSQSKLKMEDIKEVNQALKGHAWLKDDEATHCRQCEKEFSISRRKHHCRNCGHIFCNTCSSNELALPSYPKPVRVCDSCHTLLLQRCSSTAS
UniProt P31350, whole entry, looked up: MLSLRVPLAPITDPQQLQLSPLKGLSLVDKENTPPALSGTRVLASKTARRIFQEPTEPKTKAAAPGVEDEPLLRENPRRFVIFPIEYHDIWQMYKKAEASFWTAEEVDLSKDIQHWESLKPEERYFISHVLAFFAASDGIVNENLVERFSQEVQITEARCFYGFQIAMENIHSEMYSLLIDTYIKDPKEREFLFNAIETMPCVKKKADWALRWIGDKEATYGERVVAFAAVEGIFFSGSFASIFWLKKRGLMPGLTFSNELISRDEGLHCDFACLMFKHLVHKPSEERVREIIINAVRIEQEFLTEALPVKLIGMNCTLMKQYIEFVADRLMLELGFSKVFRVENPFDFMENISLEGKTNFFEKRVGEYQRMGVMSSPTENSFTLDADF
UniProt Q5JTH9: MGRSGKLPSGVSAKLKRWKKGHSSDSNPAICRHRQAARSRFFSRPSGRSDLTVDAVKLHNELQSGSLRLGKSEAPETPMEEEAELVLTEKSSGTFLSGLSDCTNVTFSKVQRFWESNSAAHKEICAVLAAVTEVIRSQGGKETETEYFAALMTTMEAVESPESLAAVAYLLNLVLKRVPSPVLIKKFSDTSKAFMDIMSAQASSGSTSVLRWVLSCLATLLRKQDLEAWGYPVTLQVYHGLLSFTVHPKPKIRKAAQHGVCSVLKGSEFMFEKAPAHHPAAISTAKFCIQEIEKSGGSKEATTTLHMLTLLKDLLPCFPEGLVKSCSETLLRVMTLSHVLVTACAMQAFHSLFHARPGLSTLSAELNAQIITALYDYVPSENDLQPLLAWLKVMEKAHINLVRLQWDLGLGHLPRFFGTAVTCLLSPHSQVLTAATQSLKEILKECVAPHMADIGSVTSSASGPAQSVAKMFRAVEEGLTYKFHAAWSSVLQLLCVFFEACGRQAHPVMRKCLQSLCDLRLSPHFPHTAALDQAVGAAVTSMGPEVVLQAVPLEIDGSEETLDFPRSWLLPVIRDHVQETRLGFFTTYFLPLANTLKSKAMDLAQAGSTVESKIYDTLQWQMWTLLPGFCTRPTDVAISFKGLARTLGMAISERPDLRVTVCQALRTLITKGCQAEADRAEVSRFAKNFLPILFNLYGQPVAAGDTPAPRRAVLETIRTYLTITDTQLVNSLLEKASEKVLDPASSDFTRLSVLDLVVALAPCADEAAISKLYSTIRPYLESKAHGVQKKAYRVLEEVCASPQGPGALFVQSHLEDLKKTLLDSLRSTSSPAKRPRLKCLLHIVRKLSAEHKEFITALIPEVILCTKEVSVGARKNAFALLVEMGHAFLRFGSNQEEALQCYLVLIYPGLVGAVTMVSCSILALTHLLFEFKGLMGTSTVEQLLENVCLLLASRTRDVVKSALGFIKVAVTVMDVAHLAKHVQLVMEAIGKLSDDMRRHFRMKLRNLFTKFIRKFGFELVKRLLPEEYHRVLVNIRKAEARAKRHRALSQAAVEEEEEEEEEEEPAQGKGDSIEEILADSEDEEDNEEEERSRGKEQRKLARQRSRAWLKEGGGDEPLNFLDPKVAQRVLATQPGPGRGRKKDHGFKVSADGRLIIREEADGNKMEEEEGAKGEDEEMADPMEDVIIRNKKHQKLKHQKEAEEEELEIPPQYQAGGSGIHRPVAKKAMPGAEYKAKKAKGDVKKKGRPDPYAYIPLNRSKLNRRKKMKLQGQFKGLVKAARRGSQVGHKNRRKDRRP
UniProt P28702: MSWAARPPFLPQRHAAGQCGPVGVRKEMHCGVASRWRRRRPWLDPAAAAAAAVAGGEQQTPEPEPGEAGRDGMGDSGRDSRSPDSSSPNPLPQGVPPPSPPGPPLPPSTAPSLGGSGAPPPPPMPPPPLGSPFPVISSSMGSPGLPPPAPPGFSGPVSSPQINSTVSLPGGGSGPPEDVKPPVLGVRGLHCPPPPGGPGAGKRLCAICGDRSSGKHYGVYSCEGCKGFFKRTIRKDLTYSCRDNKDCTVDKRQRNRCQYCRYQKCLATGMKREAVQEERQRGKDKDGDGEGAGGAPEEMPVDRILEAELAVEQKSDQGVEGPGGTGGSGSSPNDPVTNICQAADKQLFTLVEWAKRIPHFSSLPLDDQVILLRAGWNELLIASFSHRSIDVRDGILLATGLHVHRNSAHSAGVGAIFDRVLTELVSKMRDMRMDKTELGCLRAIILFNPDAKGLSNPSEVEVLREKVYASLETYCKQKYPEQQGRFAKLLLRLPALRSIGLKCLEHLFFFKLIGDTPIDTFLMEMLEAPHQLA

Target | probe-labelled cysteine peptide fold change (10 µM) | probe-labelled cysteine peptide fold change (50 µM)
RPS17_P08708_35_RVCEEIAIIPSKK (UniProt P08708) | -0.52 | 0.294
RRP1B_Q14684_286_GRDDCGTFEDTGPLLQFDYK (UniProt Q14684) | 0.0197 | -0.0598
SAMHD1_Q9Y3Z3_320_DCHHLGIQNNFDYKR (UniProt Q9Y3Z3) | -0.0909 | -0.179
RTN4IP1_Q8WWV3_130_DVSGVVMECGLDVK (UniProt Q8WWV3) | 0.0949 | 0.461
RRP1B_Q14684_628_VMSNLVEHNGVLESEAGQPQALGSSGTCSSLKK (UniProt Q14684) | 0.0694 | -0.589
RREB1_Q92766_1395_LACDTCGK (UniProt Q92766) | 0.0981 | 0.163
RPS27A_P62979_121_ECPSDECGAGVFMASHFDR (UniProt P62979) | 0.0221 | -0.304
SAAL1_Q96ER3_366_VLQNMEQCQK (UniProt Q96ER3) | -0.193 | -0.171
RPS17_P08708_35_VCEEIAIIPSKK (UniProt P08708) | -0.135 | -0.205
SAMHD1_Q9Y3Z3_80_ENEITGALLPCLDESR (UniProt Q9Y3Z3) | -0.0976 | 0.178
RTCB_Q9Y3I0_255_GQVCVMIHSGSR (UniProt Q9Y3I0) | 0.156 | -0.224
SAE1_Q9UBE0_214_KVVFCPVK (UniProt Q9UBE0) | -0.181 | -0.147
RRM1_P23921_218_WFTHASPTLFNAGTNRPQLSSCFLLSMKDDSIEGIYDTLK (UniProt P23921) | 0.0558 | 0.177
RRP1B_Q14684_583_AGPGSLELCGLPSQK (UniProt Q14684) | -0.0155 | -0.108
RPS2_P15880_182_IGKPHTVPCK (UniProt P15880) | -0.195 | -0.301
RPS29_P62273_39_YGLNMCR (UniProt P62273) | -0.0339 | -0.384
RPS8_P62241_72_LDVGNFSWGSECCTRK (UniProt P62241) | -0.0776 | -0.469
RUVBL2_Q9Y230_227_FVQCPDGELQK (UniProt Q9Y230) | -0.053 | 0.0778
RWDD2B_P57060_105_MAMFSLACILPFK (UniProt P57060) | -0.149 | -0.00776
SAE1_Q9UBE0_295_YCFSEMAPVCAVVGGILAQEIVK (UniProt Q9UBE0) | -0.252 | 0.0287
RPTOR_Q8N122_1168_VQDIPTGADSCVTSLSCDSHR (UniProt Q8N122) | -0.0217 | -0.0357
RTFDC1_Q9BY42_3_GCDGGTIPK (UniProt Q9BY42) | -0.146 | -0.568

Target | probe-labelled cysteine peptide fold change (10 µM) | probe-labelled cysteine peptide fold change (50 µM)
RTF1_Q92541_599_RQCKPTIVSNSR (UniProt Q92541) | -0.271 | -0.377
RSBN1L_Q6PCB5_595_AVHCGEWPDQPR (UniProt Q6PCB5) | -0.0881 | -0.128
RUFY1_Q96T51_675_NCGHIFCNTCSSNELALPSYPK (UniProt Q96T51) | 0.141 | 0.0566
RPUSD2_Q8IZ73_344_GKPCETVFQR (UniProt Q8IZ73) | 0.135 | -0.09
RPS11_P62280_131_DVQIGDIVTVGECRPLSKTVR (UniProt P62280) | 0.333 | 0.144
RXRA_P19793_195_CLAMGMK (UniProt P19793) | -0.154 | -0.22
RRM2_P31350_317_LIGMNCTLMK (UniProt P31350) | 0.27 | 0.18
RRM1_P23921_492_IIDINYYPVPEACLSNKR (UniProt P23921) | -0.236 | -0.801
RPS11_P62280_131_DVQIGDIVTVGECRPLSK (UniProt P62280) | 0.00424 | -0.0975
RSBN1_Q5VWQ0_207_GPDGDPSSCGTDLK (UniProt Q5VWQ0) | -0.142 | -0.182
RRAGA_Q7L523_157+159_LSRPLECACFR (UniProt Q7L523) | 0.0384 | -0.194
RUVBL2_Q9Y230_413_YAIQLITAASLVCR (UniProt Q9Y230) | 0.0548 | 0.114
RREB1_Q92766-2_1302_HGVTTCSLR (UniProt Q92766) | -0.0594 | -0.557
RPS28_P62857_27_TGSQGQCTQVR (UniProt P62857) | 0.0534 | -0.0298
SACS_Q9NZJ4_3694_QCDVLQLLWTSCPILPEK (UniProt Q9NZJ4) | -0.0994 | -0.0841
RPS3_P23396_134_GCEVVVSGK (UniProt P23396) | 0.0199 | 0.0174
RREB1_Q92766_1514_KVCSVCNK (UniProt Q92766) | 0.00281 | -0.451
SAC3D1_A6NKF1_340_DLCQAHGLPLDGEER (UniProt A6NKF1) | 0.225 | 0.126
RPS2_P15880_182_PHTVPCK (UniProt P15880) | -0.231 | 0.0272
RTTN_Q86VV8_2128_SSPLLPLLIFHNVCFSPANKPK (UniProt Q86VV8) | -0.219 | -0.0186
RTCA_O00442_63_DLCDGQLEGAEIGSTEITFTPEK (UniProt O00442) | 0.112 | 0.36
RUNX3_Q13761_22_RFTPPSPAFPCGGGGGK (UniProt Q13761) | 0.0563 | -0.757

In a second layout: results already given
RRM2_P31350_317_LIGMNCTLMK (UniProt P31350)
  probe-labelled cysteine peptide fold change (10 µM): 0.27; probe-labelled cysteine peptide fold change (50 µM): 0.18
RRM1_P23921_492_IIDINYYPVPEACLSNKR (UniProt P23921)
  probe-labelled cysteine peptide fold change (10 µM): -0.236; probe-labelled cysteine peptide fold change (50 µM): -0.801
RPS11_P62280_131_DVQIGDIVTVGECRPLSK (UniProt P62280)
  probe-labelled cysteine peptide fold change (10 µM): 0.00424; probe-labelled cysteine peptide fold change (50 µM): -0.0975
RSBN1_Q5VWQ0_207_GPDGDPSSCGTDLK (UniProt Q5VWQ0)
  probe-labelled cysteine peptide fold change (10 µM): -0.142; probe-labelled cysteine peptide fold change (50 µM): -0.182

Following part.

Target | probe-labelled cysteine peptide fold change (10 µM) | probe-labelled cysteine peptide fold change (50 µM)
RSBN1L_Q6PCB5_818_EELCPGNLSLVDTR (UniProt Q6PCB5) | -0.353 | 0.0577
SAMM50_Q9Y512_237_ELGCLSR (UniProt Q9Y512) | -0.0776 | -0.106
RRM1_P23921_787_NTAAMVCSLENRDECLMCGS (UniProt P23921) | -0.466 | -0.515
RPS12_P25398_106_VVGCSCVVVK (UniProt P25398) | 0.0112 | 0.108
RRP12_Q5JTH9_102_SSGTFLSGLSDCTNVTFSK (UniProt Q5JTH9) | 0.0575 | -0.282
RPS2_P15880_222_LLMMAGIDDCYTSAR (UniProt P15880) | 0.0322 | -0.132
RPS2_P15880_222_KLLMMAGIDDCYTSAR (UniProt P15880) | -0.0843 | -1.02
RPS11_P62280_60_CPFTGNVSIR (UniProt P62280) | -0.0938 | -0.00335
RPS20_P60866_36_VCADLIR (UniProt P60866) | -0.099 | -0.0199
RPS6KA1_Q15418_432_ETIGVGSYSECKR (UniProt Q15418) | -1.06 | -2.91
RTFDC1_Q9BY42_37_DAELVAQWNYCTLSQEILR (UniProt Q9BY42) | 0.285 | 0.0626
RPS27A_P62979_126_ECPSDECGAGVFMASHFDR (UniProt P62979) | -0.0394 | -0.0668
RRP1_P56182_198_FIDPFCR (UniProt P56182) | -0.055 | 0.166
SACS_Q9NZJ4_1285_FCPLAQAVIKPIHDLDLQPYLHNVPK (UniProt Q9NZJ4) | 0.0184 | -0.437
SAFB2_Q14151_672_LQLECQR (UniProt Q14151) | -0.404 | -0.689
RXRB_P28702_30_EMHCGVASR (UniProt P28702) | -0.226 | -0.437
SACS_Q9NZJ4_1846_LGLVPCGAVGVQLSEIQDQK (UniProt Q9NZJ4) | 0.165 | 0.146
SAMHD1_Q9Y3Z3_80_NIRENEITGALLPCLDESR (UniProt Q9Y3Z3) | -0.084 | 0.0813
SAAL1_Q96ER3_248_LVPCILEAAK (UniProt Q96ER3) | 0.0544 | -0.249
RPS17_P08708_35_VCEEIAIIPSK (UniProt P08708) | -0.306 | 0.0537
RRM1_P23921_779+787_NTAAMVCSLENRDECLMCGS (UniProt P23921) | -0.321 | -0.786
RXRB_P28702_247_DCTVDKR (UniProt P28702) | 0.0509 | -0.254

Target | probe-labelled cysteine peptide fold change (10 µM) | probe-labelled cysteine peptide fold change (50 µM)
RRP12_Q5JTH9_423_FFGTAVTCLLSPHSQVLTAATQSLK (UniProt Q5JTH9) | -0.0901 | 0.231
RRP8_O43159_317_QRPASLVVADFGCGDCR (UniProt O43159) | 0.172 | -0.12
SAMHD1_Q9Y3Z3_341_VCEVDNELR (UniProt Q9Y3Z3) | 0.395 | 0.15
RRP12_Q5JTH9_799_VLEEVCASPQGPGALFVQSHLEDLKK (UniProt Q5JTH9) | 0.0169 | -0.0248
RTFDC1_Q9BY42_262_AGKPPCGATK (UniProt Q9BY42) | -0.0272 | -0.33
RRM1_P23921_444_DEVAVCNLASLALNMYVTSEHTYDFKK (UniProt P23921) | 0.31 | 0.109
RXRB_P28702_241_DLTYSCR (UniProt P28702) | -0.0959 | -0.31
SAMD9_Q5K651_975+979_TEVIECGNYCGVR (UniProt Q5K651) | 0.381 | 0.469
RPS4Y1_P22090_181_FDTGNLCMVIGGANLGR (UniProt P22090) | 0.0144 | 0.148
RPS15A_P62244_30_QVLIRPCSK (UniProt P62244) | -0.311 | 0.176
SACM1L_Q9NTJ5_23_FYVEACDDGADDVLTIDR (UniProt Q9NTJ5) | -0.19 | 0.242
RTCB_Q9Y3I0_485_NVTDVVNTCHDAGISK (UniProt Q9Y3I0) | -0.261 | 0.000605
RRM2B_Q7LG56_236_DEGLHCDFACLMFQYLVNKPSEER (UniProt Q7LG56) | 0.31 | 0.261
RPS17_P08708_35_RVCEEIAIIPSK (UniProt P08708) | -0.582 | 0.161
RXRB_P28702_191_GLHCPPPPGGPGAGK (UniProt P28702) | 0.0057 | -0.071
RUFY1_Q96T51_155_SLDADHAPLQQFFVVMEHCLK (UniProt Q96T51) | -0.0207 | -0.0953
RREB1_Q92766_805_NCIHHILK (UniProt Q92766) | -0.0192 | -0.0174
RRP8_O43159_317+320_QRPASLVVADFGCGDCR (UniProt O43159) | -0.0913 | -0.409
RRP9_O43818_296+297_ECCVTAGGR (UniProt O43818) | -0.103 | -0.552

— the supplement of paper PMC12067093, “Discovery and optimisation of a covalent ligand for TRIM25 and its application to targeted protein ubiquitination” (Chemical Science, 2025)
